Where two headings read alike, the source gives them in different places. No constants are given. Whether binding was seen depends on the method and setting. Binding can be weak; no strength is given. Tags and fused reporters may be left off the sequences shown.
Assays:
Experiment in all cases: co-sedimentation
[1] = target: native tubulin purified from porcine brain, polymerised to microtubules (MTs) (porcine)
[2] = target: native tubulin purified from porcine brain, polymerised to microtubules (MTs) (porcine); remark: listed apart in the source
[3] = target: subtilisin-treated microtubules (ST-MT), MTs lacking E-hooks (porcine)

binding [1] | binding [2] | binding [3] | Binder
no binding |  |  | Cdt1^92-410 (N-terminal GFP fusion) (domain or fragment, UniProt Q9H211 92-410) PSPGQKIKKSTPAAGQPPHLTSAQDQDTISELASCLQRARELGARVRALKASAQDAGESCTPEAEGRPEEPCGEKAPAYQRFHALAQPGLPGLVLPYKYQVLAEMFRSMDTIVGMLHNRSETPTFAKVQRGVQDMMRRRFEECNVGQIKTVYPASYRFRQERSVPTFKDGTRRSDYQLTIEPLLEQEADGAAPQLTASRLLQRRQIFSQKLVEHVKEHHKAFLASLSPAMVVPEDQLTRWHPRFNVDEVPDIEPAALPQPPATEKLTTAQEVLARARNLISPRMEKALSQLALRSAAPSSPGSPRPALPATPPATPPAA
binds |  |  | Cdt1^92-546 8A (non-phosphorylatable mutant) (domain or fragment, UniProt Q9H211 92-546) PSPGQKIKKAAPAAGQPPHLTSAQDQDTISELASCLQRARELGARVRALKAAAQDAGESCTPEAEGRPEEPCGEKAPAYQRFHALAQPGLPGLVLPYKYQVLAEMFRSMDTIVGMLHNRSETPTFAKVQRGVQDMMRRRFEECNVGQIKTVYPASYRFRQERSVPTFKDGTRRADYQLAIEPLLEQEADGAAPQLAASRLLQRRQIFSQKLVEHVKEHHKAFLASLSPAMVVPEDQLARWHPRFNVDEVPDIEPAALPQPPATEKLATAQEVLARARNLISPRMEKALSQLALRSAAPSSPGSPRPALPATPPATPPAASPSALKGVSQDLLERIRAKEAQKQLAQMTRCPEQEQRLQRLERLPELARVLRSVFVSERKPALSMEVACARMVGSCCTIMSPGEMEKHLLLLSELLPDWLSLHRIRTDTYVKLDKAADLAHITARLAHQTRAEEGL
binds | binds | binds | Cdt1^92-546 (human Cdt1 devoid of the N-terminal 92 aa, N-terminal GFP fusion) (domain or fragment, UniProt Q9H211 92-546) PSPGQKIKKSTPAAGQPPHLTSAQDQDTISELASCLQRARELGARVRALKASAQDAGESCTPEAEGRPEEPCGEKAPAYQRFHALAQPGLPGLVLPYKYQVLAEMFRSMDTIVGMLHNRSETPTFAKVQRGVQDMMRRRFEECNVGQIKTVYPASYRFRQERSVPTFKDGTRRSDYQLTIEPLLEQEADGAAPQLTASRLLQRRQIFSQKLVEHVKEHHKAFLASLSPAMVVPEDQLTRWHPRFNVDEVPDIEPAALPQPPATEKLTTAQEVLARARNLISPRMEKALSQLALRSAAPSSPGSPRPALPATPPATPPAASPSALKGVSQDLLERIRAKEAQKQLAQMTRCPEQEQRLQRLERLPELARVLRSVFVSERKPALSMEVACARMVGSCCTIMSPGEMEKHLLLLSELLPDWLSLHRIRTDTYVKLDKAADLAHITARLAHQTRAEEGL
no binding |  |  | Cdt1^92-232 (N-terminal GFP fusion) (domain or fragment, UniProt Q9H211 92-232) PSPGQKIKKSTPAAGQPPHLTSAQDQDTISELASCLQRARELGARVRALKASAQDAGESCTPEAEGRPEEPCGEKAPAYQRFHALAQPGLPGLVLPYKYQVLAEMFRSMDTIVGMLHNRSETPTFAKVQRGVQDMMRRRFE
